Data taken from PMC7819943, “Rice protein-binding microarrays: a tool to detect cis-acting elements near promoter regions in rice”.
The list shows a part of the results.

By UniProt entry, the sequences of proteins in these tests, tags left out.
UniProt Q0JBA9, entry or part of it: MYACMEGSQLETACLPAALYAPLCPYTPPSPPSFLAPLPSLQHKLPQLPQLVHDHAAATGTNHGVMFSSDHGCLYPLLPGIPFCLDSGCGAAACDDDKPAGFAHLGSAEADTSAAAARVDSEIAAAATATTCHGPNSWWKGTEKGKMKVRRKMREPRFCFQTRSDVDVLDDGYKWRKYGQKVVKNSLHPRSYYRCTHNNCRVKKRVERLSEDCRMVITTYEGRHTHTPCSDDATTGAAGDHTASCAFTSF

biological target: OsWRKY34 (Oryza sativa, UniProt Q0JBA9 1-250); test: protein-binding microarray (RPBM); PBS, 2% BSA, 51.3 ng/ul salmon testes DNA, 50 uM zinc acetate, 200 nM TF, 25 C, 1 h; high values mean tight binding; settings: protein: recombinant; tags: N-terminal polyhistidine and DsRed monomer fusion (pET32a); label: CyDye5-dUTP incorporated in the synthesized complementary strand; 3' TTTTT single-stranded linker to array surface; dsDNA, one strand shown
Method in brief: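 The binding signal for each feature is its fluorescence intensity in arbitrary units. An Axon 4000B scanner was used to read a custom Agilent array that had been made double-stranded with Cy5-dUTP primer extension, blocked with 2% BSA, incubated at 25 °C for 1 h with 200 nM protein in PBS, 2% BSA, salmon testes DNA and 50 µM zinc acetate, and washed. The protein was an N-terminal polyhistidine–DsRed transcription factor fusion from E. coli BL21-CodonPlus, purified on Ni–NTA.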

| Sequence | binding signal |
| --- | --- |
| CCTCCACCTCTAAGTCAAGTCACCACCGCCATCATCCATGCGGAGTCACCTAGTGCAG | 8560 fluorescence intensity (a.u.) |
| CATCCATCTTCTACCCATCCCAATCTCCCTAGCCAGCATACGGAGTCACCTAGTGCAG | 8020 fluorescence intensity (a.u.) |
| GAGGGAGGGTCATCGCCATCGAATCCCAAAAAATCACCCGCGGAGTCACCTAGTGCAG | 8150 fluorescence intensity (a.u.) |
| ACTCTCTCTGTTTCAGGTCATAAGACGTTTTGACTTTGGACGGAGTCACCTAGTGCAG | 10600 fluorescence intensity (a.u.) |
| TTACCCAGTCTTCTACCCATCTCTCTCTCCCTAGCCTAGTCGGAGTCACCTAGTGCAG | 8360 fluorescence intensity (a.u.) |
| ATACAATCTACTTGAATCGTTTTTTCTTTACTTTTCAGTTCGGAGTCACCTAGTGCAG | 9840 fluorescence intensity (a.u.) |
| GTATATGCGCGCACAAGAGATTTGAAGTGACCTTTCCATACGGAGTCACCTAGTGCAG | 8100 fluorescence intensity (a.u.) |
| TCCCCTATCCAGGGAGGGTTTTGACTTTTTTGACTCTGACCGGAGTCACCTAGTGCAG | 10900 fluorescence intensity (a.u.) |
| AGTACTCCCTCCGTTTCTAAATATTTGACACCGTTGACTTCGGAGTCACCTAGTGCAG | 12700 fluorescence intensity (a.u.) |
| GACCTAGCTCTGCCCTTTCTTTCTGAAATAAATAATGCATCGGAGTCACCTAGTGCAG | 8960 fluorescence intensity (a.u.) |
| GACAAAGCCGTAAATTCCGCCCCGTTTCGCTGTGCCGTGCCGGAGTCACCTAGTGCAG | 9950 fluorescence intensity (a.u.) |
| GACAGTATACCTTCAACTTTTATTTACCGTCTTCTCTTTCCGGAGTCACCTAGTGCAG | 8350 fluorescence intensity (a.u.) |
| ATACCTCTCGCACCTGTCCATGTTGCCTTGTAGATATACACGGAGTCACCTAGTGCAG | 14700 fluorescence intensity (a.u.) |
| GGAGGGCGGGTTGGGCTGGATCCGGGCGACGACGGCTCCGCGGAGTCACCTAGTGCAG | 16000 fluorescence intensity (a.u.) |
| AACTTTTCTACACACATAAACTTCTAATTTTTCCAACATACGGAGTCACCTAGTGCAG | 8330 fluorescence intensity (a.u.) |
| AATTCAGACAACCTTGTTCCCGTTGACGAATTCAGCCCACCGGAGTCACCTAGTGCAG | 8760 fluorescence intensity (a.u.) |
| GCCAAAGCCATACCCATCATCTTCACATGGAATTCCAATTCGGAGTCACCTAGTGCAG | 8960 fluorescence intensity (a.u.) |
| GCATCTCTGCCCCAGTTCGTGCGTAGTATGTCACGCTCACCGGAGTCACCTAGTGCAG | 12000 fluorescence intensity (a.u.) |
| ATCCAAGCGCCCGCCTCTATATATGCGCGCCGCCACCATGCGGAGTCACCTAGTGCAG | 8370 fluorescence intensity (a.u.) |
| TTACTCTTCTCTCTCTTCCTTTATCTCTTTAAAATATTACCGGAGTCACCTAGTGCAG | 9970 fluorescence intensity (a.u.) |
| TCACTGCCTCTCTTCTTGCTCATCTCCCAATCCACTACTTCGGAGTCACCTAGTGCAG | 8900 fluorescence intensity (a.u.) |

| Sequence | binding signal |
| --- | --- |
| GTCGTCATGTTCCAAAAGTCTCGTCCCATGTGACCCTCCACGGAGTCACCTAGTGCAG | 8310 fluorescence intensity (a.u.) |
| GCTTTCGACCCACTACATAATTTTTTTATTTCCTATTCCACGGAGTCACCTAGTGCAG | 9700 fluorescence intensity (a.u.) |
| AATCATATTCTTCACCTCTGCAGTTTCATTCCTTTCAGGCCGGAGTCACCTAGTGCAG | 9040 fluorescence intensity (a.u.) |
| AGAGCTTTTCTTAGACCCATTTTTTGCACTCTTTAAAGATCGGAGTCACCTAGTGCAG | 8670 fluorescence intensity (a.u.) |
| ACGATCTGACTCAGATAACTGACACGCTGCTCTCAATCGCCGGAGTCACCTAGTGCAG | 8180 fluorescence intensity (a.u.) |
| AACCACAGTAGCTCACAGGCCATTATCCTGTCAGTACTTACGGAGTCACCTAGTGCAG | 8220 fluorescence intensity (a.u.) |
| GGGTTCTTTGTTCTTGTAGTGGTAGTAGCCACTTGCTTGACGGAGTCACCTAGTGCAG | 11400 fluorescence intensity (a.u.) |
| ACCTCATCATTTTCCATCGCTCCCATCCGCGTCGCTCCCGCGGAGTCACCTAGTGCAG | 10300 fluorescence intensity (a.u.) |
| GTCAGCGGGCAGGTAAGCATCCCCGACATCGATGTCGATCCGGAGTCACCTAGTGCAG | 8790 fluorescence intensity (a.u.) |
| CACTGCCACTCGCCACCCAGCTCCGTCCTATGCCTCCGCGCGGAGTCACCTAGTGCAG | 12400 fluorescence intensity (a.u.) |
| TCAGTGATAGAGTCGGAGCAATGTTGGTCTCATTTTCGTTCGGAGTCACCTAGTGCAG | 8140 fluorescence intensity (a.u.) |
| CCTGCCCGTTTCAGACCTCGGCGCGTGCACATATATACCACGGAGTCACCTAGTGCAG | 11100 fluorescence intensity (a.u.) |
| AACGTTTGACCATTTGTTTTATTCAAAATTTTTGTGTAAACGGAGTCACCTAGTGCAG | 8770 fluorescence intensity (a.u.) |
| CTCCATCCCTCGTGCGGCTTAGCTCTTTTTTTTCCGAATTCGGAGTCACCTAGTGCAG | 8730 fluorescence intensity (a.u.) |
| ATACGTACCCTTTGATGGATGGTTGACCTAGGGTTTTTGTCGGAGTCACCTAGTGCAG | 11100 fluorescence intensity (a.u.) |
| TCTTAAGCGTGTTCATGGGTCTTGTTATGCTCAAGTCAAACGGAGTCACCTAGTGCAG | 8950 fluorescence intensity (a.u.) |
| CCCAGACTAACTCCACCCATGCCGCCTTTGTTTTCCCCATCGGAGTCACCTAGTGCAG | 11400 fluorescence intensity (a.u.) |
| ACATTGTGCATGGGAGTTTAATTACGGGGATGGGAATTTACGGAGTCACCTAGTGCAG | 8780 fluorescence intensity (a.u.) |
| CGTACTTCACCGGCTTCGCCATTGGGGCGGCGGTGGCGGGCGGAGTCACCTAGTGCAG | 10200 fluorescence intensity (a.u.) |
| TCGCGTGTGCCTTTCTCAGTTGCATCTTCCTTGCGGCATCCGGAGTCACCTAGTGCAG | 12000 fluorescence intensity (a.u.) |
| ATTCACATCATCTTCAAGATTTTTCACTTAATTCTTAGCACGGAGTCACCTAGTGCAG | 10400 fluorescence intensity (a.u.) |

Part of the list above, bar-delimited.
Sequence | binding signal
CATCCATCTTCTACCCATCCCAATCTCCCTAGCCAGCATACGGAGTCACCTAGTGCAG | 8020 fluorescence intensity (a.u.)
ATACAATCTACTTGAATCGTTTTTTCTTTACTTTTCAGTTCGGAGTCACCTAGTGCAG | 9840 fluorescence intensity (a.u.)
AGTACTCCCTCCGTTTCTAAATATTTGACACCGTTGACTTCGGAGTCACCTAGTGCAG | 12700 fluorescence intensity (a.u.)
GACAAAGCCGTAAATTCCGCCCCGTTTCGCTGTGCCGTGCCGGAGTCACCTAGTGCAG | 9950 fluorescence intensity (a.u.)
GACAGTATACCTTCAACTTTTATTTACCGTCTTCTCTTTCCGGAGTCACCTAGTGCAG | 8350 fluorescence intensity (a.u.)
GCATCTCTGCCCCAGTTCGTGCGTAGTATGTCACGCTCACCGGAGTCACCTAGTGCAG | 12000 fluorescence intensity (a.u.)
GCTTTCGACCCACTACATAATTTTTTTATTTCCTATTCCACGGAGTCACCTAGTGCAG | 9700 fluorescence intensity (a.u.)
AATCATATTCTTCACCTCTGCAGTTTCATTCCTTTCAGGCCGGAGTCACCTAGTGCAG | 9040 fluorescence intensity (a.u.)
ACCTCATCATTTTCCATCGCTCCCATCCGCGTCGCTCCCGCGGAGTCACCTAGTGCAG | 10300 fluorescence intensity (a.u.)
TCAGTGATAGAGTCGGAGCAATGTTGGTCTCATTTTCGTTCGGAGTCACCTAGTGCAG | 8140 fluorescence intensity (a.u.)
ATACGTACCCTTTGATGGATGGTTGACCTAGGGTTTTTGTCGGAGTCACCTAGTGCAG | 11100 fluorescence intensity (a.u.)
TCTTAAGCGTGTTCATGGGTCTTGTTATGCTCAAGTCAAACGGAGTCACCTAGTGCAG | 8950 fluorescence intensity (a.u.)
